Measured data: PubChem BioAssay AID652272 (Drosophila RNAi Screening Center, 2013)
The deposit covers about 21,000 reagents; shown is a random part of those with a known target gene and a result. In the full data, 503 (2.4%) got an active call. 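Raw plate light values, not normalised; calls rest on replicate z-scores that were not deposited; hits include reporter decreases as well as increases.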 No sequences are given here. The record does not give: the amount of reagent, the time to read-out.

- Screen: 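Genome-wide knock-down search for components of Hedgehog signalling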 (primary screen)
- Cell system: Drosophila clone 8 (Cl8) cells
- Knock-down reagent: long dsRNA against Drosophila genes
- Read-out: 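Firefly light from a Hedgehog-responsive ptc promoter reporter and Renilla reference light, both read on a plate reader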
- Reading the numbers: firefly Hh reporter signal: higher = more ptc reporter light; Renilla reference signal: higher = more Renilla control light
- Rule for the call: 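Called a hit if the two-replicate mean z-score lies below -2 or above +3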
- Meaning of the calls: active = hit: reporter lowered or raised; inactive = not a hit

With Polr3I (RNA polymerase III subunit I) [DRSC19922], how do the results read?
firefly Hh reporter signal, replicate 1: 76016; firefly Hh reporter signal, replicate 2: 81568; Renilla reference signal, replicate 1: 1948; Renilla reference signal, replicate 2: 2320; Outcome: inactive

For larp (La related protein) [DRSC14728], what does the deposit list?
firefly Hh reporter signal, replicate 1: 1.75e5; firefly Hh reporter signal, replicate 2: 1.44e5; Renilla reference signal, replicate 1: 5324; Renilla reference signal, replicate 2: 4018; Outcome: inactive

For larp (La related protein) [DRSC16984], what does the deposit list?
firefly Hh reporter signal, replicate 1: 1.25e5; firefly Hh reporter signal, replicate 2: 1.29e5; Renilla reference signal, replicate 1: 3904; Renilla reference signal, replicate 2: 3364; Outcome: inactive

How did the screen score HDAC11 (Histone deacetylase 11) [DRSC14280]?
firefly Hh reporter signal, replicate 1: 3.93e5; firefly Hh reporter signal, replicate 2: 85671; Renilla reference signal, replicate 1: 18918; Renilla reference signal, replicate 2: 2621; Outcome: inactive

For CG34330 [DRSC20043], what does the deposit list?
firefly Hh reporter signal, replicate 1: 1.14e5; firefly Hh reporter signal, replicate 2: 2.76e5; Renilla reference signal, replicate 1: 2384; Renilla reference signal, replicate 2: 11510; Outcome: inactive

What is on record for FLASH (FLICE-associated huge protein) [DRSC06872]?
firefly Hh reporter signal, replicate 1: 5.39e5; firefly Hh reporter signal, replicate 2: 97305; Renilla reference signal, replicate 1: 4820; Renilla reference signal, replicate 2: 4820; Outcome: inactive

What did the screen give for Tsp42Eh (Tetraspanin 42Eh) [DRSC06190]?
firefly Hh reporter signal, replicate 1: 91088; firefly Hh reporter signal, replicate 2: 50820; Renilla reference signal, replicate 1: 2313; Renilla reference signal, replicate 2: 4024; Outcome: inactive

What is on record for MFS9 (Major Facilitator Superfamily Transporter 9) [DRSC15560]?
firefly Hh reporter signal, replicate 1: 1.54e5; firefly Hh reporter signal, replicate 2: 90080; Renilla reference signal, replicate 1: 6005; Renilla reference signal, replicate 2: 4220; Outcome: inactive

What is on record for CG17687 [DRSC10279]?
firefly Hh reporter signal, replicate 1: 34024; firefly Hh reporter signal, replicate 2: 38657; firefly Hh reporter signal, replicate 3: 58252; Renilla reference signal, replicate 1: 4109; Renilla reference signal, replicate 2: 4401; Outcome: inactive

What is on record for be (ben) [DRSC19607]?
firefly Hh reporter signal, replicate 1: 1.75e5; firefly Hh reporter signal, replicate 2: 1.20e5; Renilla reference signal, replicate 1: 4187; Renilla reference signal, replicate 2: 2666; Outcome: inactive

How did the screen score be (ben) [DRSC19944]?
firefly Hh reporter signal, replicate 1: 70781; firefly Hh reporter signal, replicate 2: 1.77e5; Renilla reference signal, replicate 1: 1443; Renilla reference signal, replicate 2: 7746; Outcome: inactive

What did the screen give for be (ben) [DRSC19945]?
firefly Hh reporter signal, replicate 1: 1.05e5; firefly Hh reporter signal, replicate 2: 2.34e5; Renilla reference signal, replicate 1: 1810; Renilla reference signal, replicate 2: 9753; Outcome: inactive

With cad (caudal) [DRSC03502], what was measured?
firefly Hh reporter signal, replicate 1: 1.07e5; firefly Hh reporter signal, replicate 2: 59528; Renilla reference signal, replicate 1: 3482; Renilla reference signal, replicate 2: 1856; Outcome: inactive

Which result is listed for nocte (no circadian temperature entrainment) [DRSC18123]?
firefly Hh reporter signal, replicate 1: 71133; firefly Hh reporter signal, replicate 2: 52681; Renilla reference signal, replicate 1: 2180; Renilla reference signal, replicate 2: 1492; Outcome: inactive
